Results are given in words; binding and its absence hold for the method and conditions named. In cells and extracts the contact can be indirect. Some binding calls cover weakened binding; strength is not graded here. For part of these data: Tags and fused reporters may be left off the sequences shown.

Sequences of proteins named here, by UniProt entry; tags and fusion partners are left off.
UniProt O43353: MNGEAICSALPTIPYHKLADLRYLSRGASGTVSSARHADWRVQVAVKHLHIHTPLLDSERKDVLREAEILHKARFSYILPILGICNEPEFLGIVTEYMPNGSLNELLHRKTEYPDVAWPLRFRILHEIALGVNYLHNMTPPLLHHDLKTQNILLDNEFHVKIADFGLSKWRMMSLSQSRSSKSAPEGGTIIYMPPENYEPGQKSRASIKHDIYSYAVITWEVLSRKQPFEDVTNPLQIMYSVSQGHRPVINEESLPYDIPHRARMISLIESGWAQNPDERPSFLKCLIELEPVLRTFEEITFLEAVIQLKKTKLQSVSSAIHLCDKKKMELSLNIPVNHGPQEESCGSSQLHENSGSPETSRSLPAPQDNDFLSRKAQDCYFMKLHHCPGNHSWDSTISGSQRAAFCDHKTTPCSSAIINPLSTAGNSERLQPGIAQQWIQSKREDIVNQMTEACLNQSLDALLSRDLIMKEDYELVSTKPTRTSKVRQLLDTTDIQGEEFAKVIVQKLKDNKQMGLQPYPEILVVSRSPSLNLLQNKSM
UniProt Q99836: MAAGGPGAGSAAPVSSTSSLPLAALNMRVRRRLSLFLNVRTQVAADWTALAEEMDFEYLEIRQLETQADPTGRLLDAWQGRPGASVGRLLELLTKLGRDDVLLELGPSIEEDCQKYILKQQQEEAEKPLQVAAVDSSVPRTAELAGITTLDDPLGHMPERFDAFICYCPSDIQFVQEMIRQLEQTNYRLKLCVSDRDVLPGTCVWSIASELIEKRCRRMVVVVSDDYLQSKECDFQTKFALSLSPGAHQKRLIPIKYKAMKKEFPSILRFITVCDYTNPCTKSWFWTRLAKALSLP

For test [1], the target named is human RICK (untagged) (human) (UniProt O43353). The test is described as follows: co-immunoprecipitation from transfected HEK293 cells (anti-FLAG beads, anti-RICK immunoblot).
Test [2] concerns the target HA-tagged human MyD88 (human) (UniProt Q99836). The test is described as follows: co-immunoprecipitation from transfected HEK293 cells (anti-FLAG beads, anti-HA immunoblot). (In western blotting, separated proteins are transferred to a membrane and probed.)
Test [3] deals with human RICK (untagged) (human) (UniProt O43353). The test is described as follows: co-immunoprecipitation of endogenous proteins from human DC extracts (anti-IRF4 Ab IP, anti-RICK immunoblot).

B1: FLAG-tagged human IRF4 (other, UniProt Q15306 1-451, looked up)
chain: MNLEGGGRGGEFGMSAVSCGNGKLRQWLIDQIDSGKYPGLVWENEEKSIFRIPWKHAGKQDYNREEDAALFKAWALFKGKFREGIDKPDPPTWKTRLRCALNKSNDFEELVERSQLDISDPYKVYRIVPEGAKKGAKQLTLEDPQMSMSHPYTMTTPYPSLPAQQVHNYMMPPLDRSWRDYVPDQPHPEIPYQCPMTFGPRGHHWQGPACENGCQVTGTFYACAPPESQAPGVPTEPSIRSAEALAFSDCRLHICLYYREILVKELTTSSPEGCRISHGHTYDASNLDQVLFPYPEDNGQRKNIEKLLSHLERGVVLWMAPDGLYAKRLCQSRIYWDGPLALCNDRPNKLERDQTCKLFDTQQFLSELQAFAHHGRSLPRFQVTLCFGEEFPDPQRQRKLITAHVEPLLARQLYYFAQQNSGHFLRGYDLPEHISNPEDYHRSIRHSSIQE
notes: Expressed by transfection in HEK293 cells; pulled down from whole cell lysates with anti-FLAG beads; it is entered under this molecule; also called IFN-regulatory factor 4; FLAG-tagged IRF4; not shown: FLAG tag
Take B1: the binding result in test [1] and in test [2] was “binds” throughout.

B2: endogenous IRF4 of human monocyte-derived DCs (protein, UniProt Q15306 1-451, looked up)
chain: B1 chain
B2: the binding entry in test [3] is recorded as “binds”.

For the origin of these results see patent publication US20100292153A1 (US Dept. of Health and Human Services, published 2010).
